PubChem BioAssay AID1259308, NCATS, 2017

- Purpose: 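Candidate targets for better recombinant protein yield in mammalian cells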 (primary screen)
- Cells: human HEK293 embryonic kidney cells stably expressing firefly luciferase (HEK-CMV-Luc2-Hygro)
- Reagents: single siRNA against human genes, 0.8 pmol siRNA per well
- Timing: 72 h
- Measured: 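Luciferase light (ONE-Glo) measured on one replicate plate set and viability (CellTiter-Glo) on the other, scaled to a negative control siRNA, with robust z-scores and luciferase per cell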
- Scale: total luciferase, z-score: higher = more reporter protein produced
- Call rule: 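An siRNA counts as active if its total luciferase robust z-score exceeds 3; genes with two or more such siRNAs out of three were retested with fresh siRNAs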
- Meaning of the calls: active = raised luciferase; inactive = no rise
This is a random part of about 59,000 reagents. About 1,510 of them (2.6%) count as active. 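Calls use total luciferase alone and ignore viability, so some active siRNAs may act by altering cell number.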 A number with no mark means an inactive call. The numbers tell different reagents against one gene apart. Further read-outs or replicates are left out here.

OVCH2 #1 — total luciferase, z-score = 0.304
OVCH2 #2 — total luciferase, z-score = -1.17
OVCH2 #3 — total luciferase, z-score = -0.378
LINC02245 #1 — total luciferase, z-score = -0.535
LINC02245 #2 — total luciferase, z-score = -1
LINC02245 #3 — total luciferase, z-score = 0.429
CYTH2 #1 — total luciferase, z-score = -0.897
CYTH2 #2 — total luciferase, z-score = 0.941
CYTH2 #3 — total luciferase, z-score = 0.276
EOMES #1 — total luciferase, z-score = 0.864
EOMES #2 — total luciferase, z-score = -0.801
EOMES #3 — total luciferase, z-score = 0.407

2 entries already listed, ordered by “total luciferase, z-score”, lowest first:
CYTH2 #3 — total luciferase, z-score = 0.276
CYTH2 #2 — total luciferase, z-score = 0.941
